For two molecules, binding results are on record in PMC8124558.

Results are given in words; binding and its absence hold for the method and conditions named.

The assay addresses fibronectin (commercial recombinant protein) (human). Kind of assay: ELISA; solid-phase microplate protein-binding assay: 96-well plate coated with 4 μg/mL recombinant protein at 4 °C overnight, blocked with 5% BSA/PBS; biotinylated peptide overnight at 4 °C (peptides at 500 μg/mL); streptavidin-HRP, absorbance at 450 nm; n = 2; both purified. (An ELISA detects its analyte on a solid surface through an enzyme-linked reagent.)

B1: peptide-88 (peptide)
peptide: TPMMPETSQRFK
modifications: biotin at the N-terminal
B1: the binding result is given as “no binding (tested: 500 μg/mL)”.

B2: biotinylated scrambled peptide (peptide)
peptide: LPSTQPALPPNA
modifications: biotinylated at the N-terminal
Consider B2, for which the binding entry is recorded as “no binding (tested: 500 μg/mL)”.
